Data as given in PubChem BioAssay AID2685 (National Center for Advancing Translational Sciences (NCATS), 2010).
The list shows a part of the results. These are further read-outs of the screen, such as a control signal, another cell line or another target. No call is given for them. The list favours compounds with an active or inconclusive main result. Potencies come from curve fits of mixed quality, noted in brackets.

Experiment: qHTS Assay for Lipid Storage Modulators in Drosophila S3 Cells;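 on cell number change: cells counted by Cell Tracker Red CMTPX staining in the red channel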
Settings: BODIPY lipid droplet fluorescence, 18-24 h; for cell number change: measured here: cell count max response, cells fed with added oleic acid
How it was run: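 Drosophila S3 cells loaded with oleic acid (400 uM, as added) and compounds at several concentrations; lipid droplets imaged by 488-nm laser-scanning cytometry, 500–530 nm intensity and object ratio to cell channel. Percent activity normalized to 20 uM Triacsin C.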

[1] = measured here: cell number channel AC50, cells fed with added oleic acid
[2] = measured here: lipid fluorescence (Fed channel) AC50, cells fed with added oleic acid

Compound	cell number change [%]	AC50 [1]	AC50 [2]
CCOC(=O)Cn1c(=O)oc2cc(S(=O)(=O)N3CCCC(C(=O)OCC)C3)ccc21 (stereo not given)	0.408	–	–
COc1ccc(-c2c[n+]3c(n2-c2ccc(C)cc2)CCCCC3)cc1	-62.6	9.2 µM [falling, partial curve]	8.2 µM [falling, partial curve]
Cc1nc2ccc(NC(=O)c3ccco3)cc2nc1C	-32.4	–	5.17 µM [falling, single point]
c1nc(NC2CCCCC2)c2[nH]cnc2n1	79.7	5.8 µM [rising, partial curve]	2.06 µM [rising, partial curve]
COc1ccc(-c2oc3cccnc3c2C#CC2(O)CCCCC2)cc1	-14.6	–	23.1 µM [falling, single point]
CCCN(CC#CC(O)(c1ccccc1)c1cccnc1)CCC (stereo not given)	5.44	–	–
O=C(COC(=O)COc1ccc(Cl)cc1)NC1CC1	3.41	–	2.91 µM [falling, single point]
CCN(CC)C1CCN(C(=O)c2ccc(OC3CCN(CCc4ccccc4)CC3)cc2)C1 (stereo not given)	7.43	–	3.26 µM [falling, partial curve, poor fit]
CCN1C(=S)SC(=O)C1=C1C=C(C)N(CCOC)C(C)=C1	12.9	–	0.259 µM [rising, partial curve, poor fit]
Cc1ccc(S(=O)(=O)N(C)C)cc1NC(=O)C1CCCCN1S(=O)(=O)c1ccccc1 (stereo not given)	-9.17	1.16 µM [rising, partial curve]	0.731 µM [rising, full curve]
COc1cccc(C(=O)N2CCOCC2)c1OC	18.5	–	–
Cc1ccc(N(C)S(=O)(=O)c2cccc(C(=O)Nc3nc4ccccc4[nH]3)c2)cc1	-7.07	–	32.6 µM [rising, single point]
Nc1cc(C(F)(F)F)ccc1OCC1CCCO1 (stereo not given)	-6.18	–	0.164 µM [falling, full curve, poor fit]
Cc1sc(NC(=O)c2ccccc2)c(C(=O)NC(C)C)c1C	94.4	29.1 µM [rising, single point]	–
O=C(O)COc1ccc2occ(C(=O)c3ccccc3)c2c1	-1.45	–	–
COC(=O)NNC(=S)NCc1ccccc1	-18.6	–	4.61 µM [falling, full curve]
Cc1ccc(OCCCC(=O)ON=C(N)c2ccccc2C)cc1	-22.7	2.06 µM [falling, partial curve]	–
COC(=O)c1c(NC(=O)C2C3CCC(O3)C2C(=O)O)sc2c1CCCCCC2 (stereo not given)	-10.3	1.46 µM [falling, partial curve]	23.1 µM [falling, single point]
CCC1CCCCN1C(=O)CSc1nnc(CNC(=O)COc2ccc(Cl)cc2)o1 (stereo not given)	–	1.64 µM [rising, partial curve, poor fit]	16.4 µM [falling, partial curve]
Cc1ccc2oc(=O)c(-c3ccc(O)cc3)c(C)c2c1	-22.9	–	0.116 µM [rising, full curve, poor fit]

Compound	cell number change [%]	AC50 [1]	AC50 [2]
CCc1nnc(NC(=O)Cc2sc(C)nc2-c2ccc(C)cc2)s1	13	–	–
O=C(COC(=O)CNC(=O)c1ccc(Cl)cc1)Nc1ncc(C(F)(F)F)cc1Cl	-12.8	–	–
C=CCn1nc([N+](=O)[O-])nc1Sc1cccc2cccnc12	-15.2	–	32.6 µM [falling, single point]
CCCCc1nc(NCCNC(=O)c2ccccc2)c(C#N)c2c1CSC(C)(C)C2	82.1	1.84 µM [rising, full curve]	8.2 µM [rising, partial curve]
O=C(CSc1ccc2nnc(-c3ccncc3)n2n1)Nc1ccc2c(c1)OCCO2	–	6.51 µM [rising, single point]	6.51 µM [rising, single point]
COCc1cc(C)n(CC(=O)N/N=C/c2ccc(-c3ccc(Cl)c(C(=O)O)c3)o2)c(=O)c1C#N	8.52	–	0.103 µM [falling, full curve, poor fit]
CN1CCN(CCCNC(=O)c2cn(C)c3ccc(S(=O)(=O)N(C)C)cc3c2=O)CC1	33.4	3.26 µM [rising, single point]	–
Cc1ccc(S(=O)(=O)NNc2nnc(C)c(=O)[nH]2)cc1	–	–	6.51 µM [falling, single point]
O=c1cc(N2CCOCC2)[nH]c(=O)n1-c1ccc(Br)cc1	–	–	16.4 µM [falling, partial curve]
Cc1oc(-c2ccccc2F)nc1CS(=O)CC(=O)NCc1ccccn1 (stereo not given)	10.2	–	29.1 µM [rising, single point]
O=C(NCc1ccccn1)c1ccc(NS(=O)(=O)c2cccc(Cl)c2)cc1	-8.38	–	–
O=C(CN1C(=O)CCOc2ccccc21)Nc1cccc(S(=O)(=O)N2CCOCC2)c1	12.9	0.82 µM [falling, full curve]	–
CCCc1ccc2oc(C(=O)N3CCC[C@H]3CO)c(C)c2c1	-1.23	–	0.259 µM [rising, full curve]
Cc1cccc(C(=O)Nc2ccc(C(=O)Nc3ccc(O)cc3)cc2)c1	-34	12.6 µM [falling, single point]	12.6 µM [falling, single point]
CCOC(=O)C1CCCN(C(=O)c2sc3nc(C)nc(N4CCOCC4)c3c2C)C1 (stereo not given)	-21.9	–	14.6 µM [rising, partial curve]
Cc1[nH]c(=O)c(C#N)c2c1CCCC2	39.3	20.6 µM [rising, single point]	–
O=C(CSC1=Nc2ccccc2C2=NC(c3ccccc3)C(=O)N12)NC1CCCCC1 (stereo not given)	–	–	0.92 µM [rising, partial curve, poor fit]
Cc1nc(SCC(=O)Nc2ccc(Cl)cc2[N+](=O)[O-])nc(C)c1C	18.6	–	9.2 µM [rising, partial curve, poor fit]
CC1(C)N([O-])C2=C(c3ccccc3C2=O)[N+](=O)C1(C)C	-52.6	16.4 µM [falling, single point]	20.6 µM [falling, partial curve]

Two compounds drawn at random from those above:
Compound	cell number change [%]	AC50 [1]	AC50 [2]
COCc1cc(C)n(CC(=O)N/N=C/c2ccc(-c3ccc(Cl)c(C(=O)O)c3)o2)c(=O)c1C#N	8.52	–	0.103 µM [falling, full curve, poor fit]
Cc1cccc(C(=O)Nc2ccc(C(=O)Nc3ccc(O)cc3)cc2)c1	-34	12.6 µM [falling, single point]	12.6 µM [falling, single point]
